Assay results taken from the supplement of paper PMC12889115.
This is one part of the list. These are raw signals, not scaled to a control.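 First-pass screen: polymyxin B was added at a level that permeabilizes the Salmonella outer membrane while sparing the inner membrane. DMSO wells, with and without polymyxin B, defined maximum growth. Because plates differed from one another, each plate's data were ranked separately and the compounds with the lowest OD600 were carried forward as hits.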

System: Salmonella enterica serovar Typhimurium SL1344
Assay: bacterial growth OD600 after 18 h with compound and polymyxin B; higher = more bacterial growth (less inhibition)
Conditions: 50 µM, Mueller-Hinton broth

Row | Structure (SMILES) | bacterial growth OD600 (polymyxin B 1 µg/mL) | bacterial growth OD600 (polymyxin B 0.75 µg/mL)
1 | CCC(=O)N1CCC2(CCCN(Cc3cc(OC)ccc3F)C2=O)C1 (stereo unspecified) | 0.99 | 
2 | Cc1cc(CN2CC[C@@H](N3CCCCCC3)[C@H](O)C2)oc1C | 1.27 | 
3 | O=C1CCC(CCC(=O)N2CCC(Oc3ccccc3F)CC2)(Cc2ccccc2)N1 (stereo unspecified) |  | 0.994
4 | CCN(CC1CCN(CCc2ccccc2C)CC1)C(=O)CCc1scnc1C | 1.25 | 
5 | CN(Cc1ccc(F)cc1)Cc1cnc(S(C)(=O)=O)n1CCCc1ccccc1 | 0.01 | 
6 | O=C(C1CCC1)N1CCC(C2CCN(Cc3ccc(Cl)cc3)C2)CC1 (stereo unspecified) |  | 0.832
7 | C1CC2CN(c3nc4nonc4nc3N3CCOCC3)CCN2C1 (stereo unspecified) |  | 0.813
8 | CCOC(=O)N1CCN(C(=O)Cn2nnnc2CN2CCCCCC2)CC1 | 0.909 | 
9 | O=C(Nc1cc(C(=O)N2CCC[C@H]2CO)c2c(c1)ncn2C1CCCC1)c1ccccc1 |  | 0.83
10 | COC(=O)CCCC(=O)N1CCOC(CC2CCCCC2)C1 (stereo unspecified) |  | 0.98
11 | Cc1cccc(C)c1Oc1ncccc1CNC(=O)c1cscn1 | 0.893 | 
12 | O=S(=O)(Cc1ccccc1)NCc1cccnc1Oc1ccccc1 | 0.868 | 
13 | CC(C)(CN1CCOCC1)CN1CC[C@@H](N2CCN(c3ccccc3F)CC2)[C@H](O)C1 | 0.887 | 
14 | Cc1nccn1CCC1CCCCN1C(=O)Cn1nnnc1CN1CCOCC1 (stereo unspecified) | 1.01 | 
15 | COC1CCN(Cc2cnc(S(=O)(=O)C(C)C)n2CCc2ccccc2)CC1 | 1.24 | 
16 | Cn1cc(CN2CCC(c3ccc(F)c(F)c3)Sc3ccccc32)cn1 (stereo unspecified) |  | 0.001

Arranged by number of heavy atoms (low to high): some entries from above
Row | Structure (SMILES) | bacterial growth OD600 (polymyxin B 1 µg/mL) | bacterial growth OD600 (polymyxin B 0.75 µg/mL)
10 | COC(=O)CCCC(=O)N1CCOC(CC2CCCCC2)C1 (stereo unspecified) |  | 0.98
5 | CN(Cc1ccc(F)cc1)Cc1cnc(S(C)(=O)=O)n1CCCc1ccccc1 | 0.01 | 
13 | CC(C)(CN1CCOCC1)CN1CC[C@@H](N2CCN(c3ccccc3F)CC2)[C@H](O)C1 | 0.887 | 

(further entries)

Row | Structure (SMILES) | bacterial growth OD600 (polymyxin B 1 µg/mL) | bacterial growth OD600 (polymyxin B 0.75 µg/mL)
17 | Cc1cc(C)n(CC(C)NC(=O)c2cn(CCC3CCCCC3)nn2)n1 (stereo unspecified) | 0.916 | 
18 | CCN(CC1CCCN(CCc2cccc(OC)c2)C1)C(=O)CSc1ccncc1 (stereo unspecified) | 0.892 | 
19 | CCC1CN(CCNC(=O)Cn2nc3ccccc3n2)Cc2cc(OC)ccc2O1 (stereo unspecified) |  | 0.781
20 | CCOC(=O)C1(CCCc2ccccc2)CCN(C(=O)C2CC=CCC2)CC1 (stereo unspecified) | 0.002 | 
21 | Cc1csc(C(C)NC2CCN(c3ccc(C(=O)NCCN4CCOCC4)cc3)CC2)n1 (stereo unspecified) |  | 0.857
22 | COc1ccccc1N1CCN(C(=O)c2cn(C(C)C)cc(C(=O)NCc3ccccc3)c2=O)CC1 |  | 0.768
23 | COc1ccc(O)c(CN2CCCC(c3[nH]ncc3C(C)C)C2)c1 (stereo unspecified) |  | 0.858
24 | Cc1cc(CNc2ccc(-c3nc(-c4ccccc4F)no3)cn2)no1 | 0.482 | 
25 | CCCCNC(=O)c1cn(C(C)C)cc(C(=O)N2CCN(C/C=C/c3ccccc3)CC2)c1=O |  | 0.832
26 | O=C(C1=CCCCC1)N1CCC(CO)(Cc2ccccc2C(F)(F)F)CC1 |  | 0.525
27 | COc1ccc2cc(C(=O)C3CCCN(C(=O)c4sccc4C)C3)ccc2c1 (stereo unspecified) | 0.46 | 
28 | CN(Cc1cccs1)C(=O)c1cc(COc2cccc(F)c2)[nH]n1 |  | 0.505
29 | CN(CCc1cnn(C)c1)C(=O)CC1(c2ccccc2)CC(=O)N(CCCOc2cccnc2)C1=O (stereo unspecified) |  | 0.884
30 | CCN(CC1CCCN(CCc2cccc(OC)c2)C1)C(=O)CSC (stereo unspecified) |  | 0.836
31 | O=C(NCCC1COc2ccccc2O1)c1ccc(N2CCCOCC2)nc1 (stereo unspecified) | 0.838 | 
